Reference: PubChem BioAssay AID445 (National Center for Advancing Translational Sciences (NCATS), 2006)
Some of the results follow. These are further read-outs of the screen, such as a control signal, another cell line or another target. No call is given for them. Compounds called inactive in the main read-out are mostly missing here. Words in brackets tell the shape of the fitted curve; partial curves, single points and poor fits give uncertain potencies.

assay: IkB Signaling; conditions: ABC-DLBCL IkBa-CBG/CBR dual luciferase ratio (green luciferase fused to IkBa over red control in OCI-Ly3 lymphoma cells), 4 h; measured here: control luc red channel unless noted
How it was run: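 Luminescence ratio of IκBα-fused green versus native red beetle luciferase in OCI-Ly3 cells, 4 h post-doxycycline with compound; red signal alone, scaled from basal (0%) to zero light (-100%), flagged nonspecific or cytotoxic effects.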

SMILES | AC50
CCSc1nnc(-c2cccc(S(=O)(=O)N(CC)CC)c2)n1Cc1ccccc1 | 25.1 µM [falling, partial curve]
COc1ccccc1CSc1nc2n(n1)C(c1ccccc1)C(C(=O)Nc1ccc(C)cc1)=C(C)N2 (configuration not stated) | 25.1 µM [falling, single point]
CCC(Sc1nc2n[nH]c(C)c2c(=N)n1-c1ccc(Br)cc1)C(=O)N(CC)CC (configuration not stated) | 39.8 µM [falling, single point]
COc1ccccc1C(=O)n1nc(C)cc1C | 39.8 µM [rising, single point]
CCOC(=O)c1c(S(=O)(=O)N2CCN(c3cc(Cl)ccc3C)CC2)c(C)n(C)c1C | 39.8 µM [falling, single point]
CCC(=O)n1nc(-c2ccco2)nc1SCc1ccccc1 | 0.316 µM [rising, full curve, poor fit]
O=C(c1cccc(C(=O)N2CCN(Cc3ccccc3)CC2)c1)N1CCN(Cc2ccccc2)CC1 | 15.8 µM [falling, partial curve]
O=C(Nc1nccs1)c1cc(S(=O)(=O)N2CCCCC2)ccc1Cl | 10 µM [falling, partial curve]
Cc1cccc(CCNC(=O)CCc2c(C)nc3c(-c4ccc(F)cc4)c(C)nn3c2C)c1 | 7.94 µM [falling, full curve, poor fit]
Cc1nc(-c2ccc(Cl)cc2)sc1CCNC(=O)C(=O)Nc1ccccc1C#N | 31.6 µM [rising, single point]
COc1ccc(NC(=O)Cn2c(SCc3c(F)cccc3Cl)nc3ccncc32)cc1OC | 10 µM [falling, partial curve]
CCCCN(C(=O)Nc1ccc(OCC)cc1)C1CCN(C(C)=O)CC1 | 0.0251 µM [rising, full curve, poor fit]
CCCN(CCC)C(=O)CSc1nc2ccccc2c(=O)n1C1CCCC1 | 25.1 µM [falling, partial curve]
CCCOc1ccc(C(=O)Nc2cccc(NC(=O)c3ccc(Cl)cc3Cl)c2)cc1 | 1.26 µM [falling, partial curve]
O=C(O)c1ccc(CSc2nc3cccnc3n2Cc2cccc(F)c2)cc1 | 25.1 µM [falling, single point]
O=C(c1ccco1)N1CCN(C(=O)c2cc3c(s2)-c2ccccc2OC3)CC1 | 12.6 µM [falling, partial curve]
CC1CCC(C(C)C)C(OC(=O)COC(=O)c2ccc(=O)[nH]c2)C1 (configuration not stated) | 20 µM [falling, single point]
COc1cc(NC(=O)CSc2ccc(-c3sc(C)nc3C)nn2)cc(OC)c1 | 15.8 µM [falling, partial curve]
COc1ccc(N2CCN(C(=O)c3ccc(CS(=O)c4cccc(C)c4)o3)CC2)cc1 (configuration not stated) | 2.51 µM [falling, partial curve]
COc1ccc(Cl)cc1NC(=O)c1oc2ccc(S(=O)(=O)N3CCCCC3)cc2c1C | 7.94 µM [falling, partial curve, poor fit]
CC(C)CCOCC(=O)Nc1cccc(C(=O)O)c1 | 10 µM [falling, partial curve]

SMILES | AC50
Cc1ccc2oc(=O)c(-c3nc(-c4cccs4)no3)cc2c1 | 25.1 µM [falling, partial curve]
Cc1nn(CCC(=O)Nc2cccc(C#N)c2)c(C)c1S(=O)(=O)N1CCC(C)CC1 | 25.1 µM [falling, single point]
COC(=O)Nc1ccc(S(=O)(=O)N2CCN(c3ccc(F)cc3)CC2)cc1 | 10 µM [falling, partial curve]
COC(=O)c1ccccc1NC(=O)Cc1nc(-c2ccc(OC)cc2)no1 | 12.6 µM [falling, single point]
Cc1csc2nc(COC(=O)c3ccc(NC(=O)c4ccccc4Br)cc3)cc(=O)n12 | 7.94 µM [falling, full curve]
COc1ccc(OC)c(NC(=O)CN(c2ccccc2OC)S(=O)(=O)c2ccc(C)cc2)c1 | 6.31 µM [falling, partial curve]
Cc1nc2nc(SCC(=O)NCCc3ccc(Cl)cc3)nn2c(C)c1Cc1c(F)cccc1Cl | 25.1 µM [falling, partial curve]
Cc1ccc(NC(=O)C2CCCN2S(=O)(=O)c2ccc3c(c2)n(C)c(=O)c(=O)n3C)cc1 (configuration not stated) | 0.316 µM [falling, full curve]
Cc1ccc(-n2ncc3c(N4CCN(Cc5ccccc5)CC4)ncnc32)cc1C | 12.6 µM [falling, partial curve]
Cc1oc(-c2ccccc2F)nc1Cn1c(SCc2cccc(Cl)c2)nc2ccncc21 | 12.6 µM [falling, partial curve]
CCOCCc1nn2c(=O)cc(COC(=O)c3ccccc3Br)nc2s1 | 39.8 µM [falling, single point]
O=C(Nc1ccc(F)cc1)N1CCN(c2nc3ccccc3s2)CC1 | 10 µM [falling, partial curve]
O=C(NCCc1csc(-c2ccc(C(F)(F)F)cc2)n1)c1ccccc1Cl | 0.1 µM [falling, full curve, poor fit]
Cc1ccc(S(=O)(=O)c2c(C)nn(C(C)(C)C)c2OC(=O)c2ccc(Br)o2)cc1 | 7.94 µM [falling, full curve]
CCCn1c(=N)c(C(=O)NCc2ccccc2)cc2c(=O)n3cccc(C)c3nc21 | 3.16 µM [rising, partial curve]
Oc1c(C(c2cccc(Cl)c2)N2CCOCC2)sc2nc(-c3ccco3)nn12 (configuration not stated) | 5.01 µM [rising, full curve]
O=C(COc1ccc(F)cc1)NCc1ccc2c(c1)CCN2C(=O)c1ccc(F)cc1 | 10 µM [falling, partial curve, poor fit]
Cc1ccc(C)c(N2CCN(c3nc4ccccc4n4nnnc34)CC2)c1 | 0.501 µM [falling, full curve]
O=C(Nc1ccc(F)c(Cl)c1)C1CCN(c2ncccn2)CC1 | 31.6 µM [falling, single point]
Cc1cccc(OCC(=O)Nc2ccc(S(=O)(=O)N(Cc3ccccc3)c3ccccc3)cc2)c1 | 0.1 µM [falling, full curve]
COC(=O)c1ccccc1NC(=O)C1CCCN(C(=O)c2cnn(-c3ccc(F)cc3)c2-n2cccc2)C1 (configuration not stated) | 31.6 µM [falling, single point]

Gathered by group, those above containing a COOH group (2)
SMILES | AC50
O=C(O)c1ccc(CSc2nc3cccnc3n2Cc2cccc(F)c2)cc1 | 25.1 µM [falling, single point]
CC(C)CCOCC(=O)Nc1cccc(C(=O)O)c1 | 10 µM [falling, partial curve]

Next part:

SMILES | AC50
CCc1nn(CC(=O)NCC(C)c2ccccc2)c(=O)c2cc3c(OC)cccc3n12 (configuration not stated) | 20 µM [falling, single point]
COCCn1c(=O)[nH]c2cc(C(=O)N3CCN(c4ccc(F)cc4)CC3)ccc2c1=O | 3.16 µM [falling, full curve]
Cc1cc(Br)cc(C)c1OCC(=O)Nc1ccc(S(=O)(=O)Nc2ncccn2)cc1 | 3.98 µM [rising, single point]
COc1cccc(-c2csc(N3CCN(C(=O)C4CCCCC4)CC3)n2)c1 | 31.6 µM [falling, partial curve]
CCOc1ccccc1Nc1nnc(SCC(=O)N2CCCC2)s1 | 2 µM [falling, partial curve]
Clc1ccc(-c2nnn3c2nc(N2CCCCC2)c2ccccc23)cc1 | 0.1 µM [falling, full curve]
O=S(=O)(c1ccc2c(c1)C(=NO)c1cc(S(=O)(=O)N3CCCCC3)ccc1-2)N1CCCCC1 | 7.94 µM [falling, single point] [measured here: IkB-luc green channel]
CCOc1ccc(NC(=O)c2cnn3c2NC(c2ccccc2)=CC3c2cccc(OC)c2OC)cc1 (configuration not stated) | 25.1 µM [falling, single point]
Cc1ccccc1NC(=O)c1cc2ccccc2o1 | 5.01 µM [falling, partial curve]
COc1ccc(CCNC(=O)c2cc(-c3ccccc3)on2)cc1OC | 15.8 µM [falling, partial curve]
COc1ccc(CCNC(=O)Cc2c(C)c3ccc(O)c(C)c3oc2=O)cc1OC | 25.1 µM [falling, partial curve]
CCOc1ccc(C2=C(C(C)=O)Sc3nnc(C)n3N2C(C)=O)cc1 | 31.6 µM [rising, single point] [measured here: IkB-luc green channel]
Cc1ccc(C(=O)N2CCc3cc(CNC(=O)c4ccccc4F)ccc32)cc1 | 25.1 µM [falling, single point]
COc1cccc(OC)c1OCCNC[C@@H]1COc2ccccc2O1 | 39.8 µM [falling, single point]
COc1cc(Cl)c(C)cc1NC(=O)Cn1cnc2sc(C)c(S(=O)(=O)N3CCCCC3)c2c1=O | 12.6 µM [falling, partial curve]
CN(CC(=O)NCc1ccc(Cl)cc1)S(=O)(=O)c1ccc2c(c1)c(=O)n(C)c(=O)n2C | 7.94 µM [falling, single point]
CCOc1ccccc1NC(=O)Cn1c(=O)n(-c2ccc(C)c(C)c2)c(=O)c2c(C)c(C(=O)N(C)C)sc21 | 3.98 µM [rising, single point]
CC(Nc1ncnc2c1cnn2-c1cccc(Cl)c1)c1ccccc1 (configuration not stated) | 10 µM [falling, partial curve]
COc1cccc(-c2nnc(SCC(=O)N3CCc4ccccc43)o2)c1 | 0.0158 µM [falling, full curve]
COc1ccc(C2CC(=O)N(Cc3cccc(C)c3)c3c2c(C)nn3-c2nc(C)cc(C)n2)c(OC)c1 (configuration not stated) | 12.6 µM [falling, partial curve]
